In US20060276386A1:
Results are given in words; binding and its absence hold for the method and conditions named. For part of these data: In cells and extracts the contact can be indirect. Some binding calls cover weakened binding; strength is not graded here.

Amino acid sequences for entries named in this document (tags omitted). A change or cut given only in a name is not applied to a line headed by its entry. Chains listed by the source or under a name are the forms on record and can include a tag or linker.
UniProt P84022: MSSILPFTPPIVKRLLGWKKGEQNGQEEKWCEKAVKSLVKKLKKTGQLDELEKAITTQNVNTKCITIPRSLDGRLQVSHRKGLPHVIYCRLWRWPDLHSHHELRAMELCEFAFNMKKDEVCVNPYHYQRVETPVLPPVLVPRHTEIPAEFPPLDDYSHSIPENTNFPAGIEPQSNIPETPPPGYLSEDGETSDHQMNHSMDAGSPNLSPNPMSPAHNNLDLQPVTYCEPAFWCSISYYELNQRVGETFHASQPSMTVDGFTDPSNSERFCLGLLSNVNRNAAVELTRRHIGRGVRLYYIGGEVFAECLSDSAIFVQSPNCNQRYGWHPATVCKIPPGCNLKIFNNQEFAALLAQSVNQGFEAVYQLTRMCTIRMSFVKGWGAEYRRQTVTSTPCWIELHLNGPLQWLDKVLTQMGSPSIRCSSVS
UniProt Q9WUP7: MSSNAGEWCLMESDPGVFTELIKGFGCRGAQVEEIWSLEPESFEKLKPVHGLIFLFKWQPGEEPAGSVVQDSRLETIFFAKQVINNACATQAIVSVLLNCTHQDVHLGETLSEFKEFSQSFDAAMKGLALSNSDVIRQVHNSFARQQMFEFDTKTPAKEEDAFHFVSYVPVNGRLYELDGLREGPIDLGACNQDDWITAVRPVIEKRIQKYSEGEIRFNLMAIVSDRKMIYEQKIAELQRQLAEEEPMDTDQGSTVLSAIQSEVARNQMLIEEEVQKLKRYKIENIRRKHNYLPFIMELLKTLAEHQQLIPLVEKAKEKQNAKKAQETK
C-terminally FLAG-tagged full length UCH-L5 (Q9WUP7, form named): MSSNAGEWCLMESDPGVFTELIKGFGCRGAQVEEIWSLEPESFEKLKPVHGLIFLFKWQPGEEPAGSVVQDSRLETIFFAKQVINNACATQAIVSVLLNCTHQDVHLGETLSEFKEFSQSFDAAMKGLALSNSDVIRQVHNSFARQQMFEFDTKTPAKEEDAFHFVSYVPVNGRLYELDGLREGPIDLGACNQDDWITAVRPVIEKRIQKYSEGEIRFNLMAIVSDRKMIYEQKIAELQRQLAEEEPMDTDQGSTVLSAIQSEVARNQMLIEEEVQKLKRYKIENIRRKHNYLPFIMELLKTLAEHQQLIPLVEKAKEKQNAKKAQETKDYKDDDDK

Experiments:
[1] = molecular target: Smad3 residues 1-240 used as bait in the Clontech yeast two-hybrid system (human) (UniProt P84022); test: yeast two-hybrid screen of a mouse brain cDNA library with Smad3 1-240 as bait
[2] = molecular target: N-terminally HA-tagged Smad3 residues 1-240 (human) (UniProt P84022); test: co-immunoprecipitation: anti-FLAG IP, anti-HA western blot, HEK-293 lysates
[3] = molecular target: N-terminally HA-tagged Smad3 residues 1-385 (human) (UniProt P84022); test: as above

Substance	binding [1]	binding [2]	binding [3]
UCH-L5 clone from the mouse brain cDNA library (yeast two-hybrid prey) (from UniProt Q9WUP7 1-329) (enzyme)	binds	–	–
C-terminally FLAG-tagged full length UCH-L5 (from UniProt Q9WUP7 1-329) (enzyme)	–	binds	binds
